The list shows a part of the results.
What was measured:
[1] = biological target: TMLHE_Q9NVH6_51_SLTCAWQQHEDHFELK (UniProt Q9NVH6); assay: probe-labelled cysteine peptide fold change vs DMSO (competition) (log2 fold change); higher = less target engagement (more negative = stronger competition); details: THP-1, incubation time: 4 h
[2] = biological target: TOPBP1_Q92547_977_GVHIVSEHWLLDCAQECK (UniProt Q92547); assay: as above; details: THP-1, incubation time: 4 h
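Note: competitive profiling in live THP-1 cells: cysteine peptides tagged with an iodoacetamide desthiobiotin (IA-DTB) probe, intensity after compound treatment relative to DMSO-treated cells.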

Sequences of proteins named here, by UniProt entry; tags and fusion partners are left off. A change or cut given only in a name is not applied to a line headed by its entry.
UniProt Q9NVH6: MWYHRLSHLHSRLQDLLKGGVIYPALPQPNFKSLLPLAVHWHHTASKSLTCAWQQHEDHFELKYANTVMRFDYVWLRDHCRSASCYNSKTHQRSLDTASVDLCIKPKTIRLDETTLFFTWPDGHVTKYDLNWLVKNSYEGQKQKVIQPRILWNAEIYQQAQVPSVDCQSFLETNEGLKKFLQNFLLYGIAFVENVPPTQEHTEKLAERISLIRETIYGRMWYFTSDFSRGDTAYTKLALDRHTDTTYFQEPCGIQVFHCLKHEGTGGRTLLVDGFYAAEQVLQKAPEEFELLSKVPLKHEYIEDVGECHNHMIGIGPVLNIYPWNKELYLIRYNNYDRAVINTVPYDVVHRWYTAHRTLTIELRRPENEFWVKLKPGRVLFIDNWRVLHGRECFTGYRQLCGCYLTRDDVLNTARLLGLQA
UniProt Q92547, whole entry, looked up: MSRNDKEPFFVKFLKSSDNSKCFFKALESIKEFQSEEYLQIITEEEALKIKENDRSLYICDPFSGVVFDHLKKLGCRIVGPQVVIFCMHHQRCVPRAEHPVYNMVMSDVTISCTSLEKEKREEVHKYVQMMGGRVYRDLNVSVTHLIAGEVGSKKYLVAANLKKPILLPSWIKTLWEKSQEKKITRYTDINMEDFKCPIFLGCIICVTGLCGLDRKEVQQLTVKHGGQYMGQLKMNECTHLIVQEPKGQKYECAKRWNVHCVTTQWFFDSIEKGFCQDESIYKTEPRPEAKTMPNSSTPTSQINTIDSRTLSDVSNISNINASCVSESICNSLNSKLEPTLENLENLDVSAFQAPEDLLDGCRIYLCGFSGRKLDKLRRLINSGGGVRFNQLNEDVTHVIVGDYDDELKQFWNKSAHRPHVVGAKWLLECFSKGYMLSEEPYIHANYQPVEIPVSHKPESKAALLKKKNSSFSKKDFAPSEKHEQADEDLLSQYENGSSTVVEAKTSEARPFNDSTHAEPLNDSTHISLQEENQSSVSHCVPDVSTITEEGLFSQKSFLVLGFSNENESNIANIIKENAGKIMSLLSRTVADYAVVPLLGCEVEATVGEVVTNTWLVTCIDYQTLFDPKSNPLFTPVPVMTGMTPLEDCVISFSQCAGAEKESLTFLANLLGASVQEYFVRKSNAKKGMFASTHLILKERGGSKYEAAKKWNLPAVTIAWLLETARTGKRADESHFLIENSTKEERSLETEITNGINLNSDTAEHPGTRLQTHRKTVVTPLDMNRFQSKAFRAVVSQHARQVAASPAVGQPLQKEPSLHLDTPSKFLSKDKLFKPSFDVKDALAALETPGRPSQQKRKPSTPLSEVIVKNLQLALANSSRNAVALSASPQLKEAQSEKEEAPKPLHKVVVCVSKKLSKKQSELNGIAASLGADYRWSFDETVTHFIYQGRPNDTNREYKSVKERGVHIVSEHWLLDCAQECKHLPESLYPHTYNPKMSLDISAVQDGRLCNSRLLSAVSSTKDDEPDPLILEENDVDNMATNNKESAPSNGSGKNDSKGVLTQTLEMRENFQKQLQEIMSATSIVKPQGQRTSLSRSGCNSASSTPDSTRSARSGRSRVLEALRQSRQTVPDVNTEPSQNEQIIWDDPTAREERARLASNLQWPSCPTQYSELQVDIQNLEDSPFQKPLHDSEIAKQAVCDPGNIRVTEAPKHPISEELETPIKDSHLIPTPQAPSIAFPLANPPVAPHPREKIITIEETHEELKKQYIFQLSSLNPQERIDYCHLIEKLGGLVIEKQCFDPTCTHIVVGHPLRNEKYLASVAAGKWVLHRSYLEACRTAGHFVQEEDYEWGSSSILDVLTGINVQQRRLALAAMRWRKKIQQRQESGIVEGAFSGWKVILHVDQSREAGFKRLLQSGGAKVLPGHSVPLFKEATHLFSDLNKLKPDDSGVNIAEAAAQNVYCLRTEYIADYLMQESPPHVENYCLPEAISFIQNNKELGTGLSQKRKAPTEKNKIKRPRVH

**Q.** Which results are given for Cc1cc(C(=O)N2CCCN(C(=O)CCl)CC2)ccc1-c1ccccc1 [compound 10]?
**A.** probe-labelled cysteine peptide fold change ([1]; 10 µM): -0.0542; probe-labelled cysteine peptide fold change ([1]; 50 µM): -0.13; probe-labelled cysteine peptide fold change ([2]; 10 µM): 0.052; probe-labelled cysteine peptide fold change ([2]; 50 µM): 0.11

— the supplement of paper PMC12067093, “Discovery and optimisation of a covalent ligand for TRIM25 and its application to targeted protein ubiquitination” (Chemical Science, 2025)
